# No constants are given. Whether binding was seen depends on the method and setting. In cells and extracts the contact can be indirect. These calls come from enrichment with a bait or labelling near it, and not all partners need be listed.
# T1: CheF2 (Halobacterium salinarum R1 (DSM 671)) (UniProt B0R4J4)
# T1 sequence: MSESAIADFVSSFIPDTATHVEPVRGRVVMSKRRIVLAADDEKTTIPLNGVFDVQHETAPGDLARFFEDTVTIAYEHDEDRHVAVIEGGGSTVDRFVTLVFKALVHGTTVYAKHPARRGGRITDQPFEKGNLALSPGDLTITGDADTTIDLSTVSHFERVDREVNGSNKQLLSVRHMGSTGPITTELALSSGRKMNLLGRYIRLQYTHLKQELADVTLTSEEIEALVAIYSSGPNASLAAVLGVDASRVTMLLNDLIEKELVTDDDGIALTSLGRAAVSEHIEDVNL
# T2: CheB (Halobacterium salinarum R1 (DSM 671)) (UniProt B0R4K0)
# T2 sequence: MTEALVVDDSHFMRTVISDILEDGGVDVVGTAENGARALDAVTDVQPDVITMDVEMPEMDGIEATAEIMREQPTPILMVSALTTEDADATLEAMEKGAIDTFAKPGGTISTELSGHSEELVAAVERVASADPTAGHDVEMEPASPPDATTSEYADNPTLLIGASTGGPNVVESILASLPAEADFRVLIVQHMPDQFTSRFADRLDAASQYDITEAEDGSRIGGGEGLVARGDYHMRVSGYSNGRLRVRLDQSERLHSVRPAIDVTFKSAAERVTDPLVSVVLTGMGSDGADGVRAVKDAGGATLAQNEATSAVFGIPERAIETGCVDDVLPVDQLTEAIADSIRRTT
# T3: CheF1 (Halobacterium salinarum R1 (DSM 671)) (UniProt B0R4J3)
# T3 sequence: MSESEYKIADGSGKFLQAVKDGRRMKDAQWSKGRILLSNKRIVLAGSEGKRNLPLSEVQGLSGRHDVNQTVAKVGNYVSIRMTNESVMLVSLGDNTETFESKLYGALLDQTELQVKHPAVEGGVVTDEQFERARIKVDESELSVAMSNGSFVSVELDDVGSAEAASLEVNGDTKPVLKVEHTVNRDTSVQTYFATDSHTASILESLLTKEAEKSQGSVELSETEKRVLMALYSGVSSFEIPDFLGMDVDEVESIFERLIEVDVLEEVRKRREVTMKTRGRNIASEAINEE
# T4: OE2401F (Halobacterium salinarum R1 (DSM 671)) (UniProt B0R4J2)
# T4 sequence: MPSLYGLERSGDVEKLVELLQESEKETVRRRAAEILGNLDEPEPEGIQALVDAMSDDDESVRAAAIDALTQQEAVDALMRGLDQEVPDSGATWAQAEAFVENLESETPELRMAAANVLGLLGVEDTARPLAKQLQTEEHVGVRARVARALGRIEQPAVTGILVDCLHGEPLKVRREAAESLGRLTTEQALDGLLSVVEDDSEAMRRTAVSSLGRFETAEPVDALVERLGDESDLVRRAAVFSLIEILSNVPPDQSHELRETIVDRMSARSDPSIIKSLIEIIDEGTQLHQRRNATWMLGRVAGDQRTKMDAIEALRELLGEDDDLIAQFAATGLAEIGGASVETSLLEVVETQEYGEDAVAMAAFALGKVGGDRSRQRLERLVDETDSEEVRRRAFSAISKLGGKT
# T5: CheW1 (Halobacterium salinarum R1 (DSM 671)) (UniProt Q9HQW5)
# T5 sequence: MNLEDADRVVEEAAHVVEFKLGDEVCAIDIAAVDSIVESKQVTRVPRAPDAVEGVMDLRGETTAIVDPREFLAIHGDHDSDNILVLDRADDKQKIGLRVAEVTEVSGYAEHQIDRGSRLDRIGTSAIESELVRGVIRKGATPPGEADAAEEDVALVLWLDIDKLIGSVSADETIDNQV
# Legend:
# [1] = target: T1, CheF2 (Halobacterium salinarum R1 (DSM 671)); assay: affinity purification with mass spectrometry; one-step and two-step bait fishing taken together (final data set; both methods applied to all baits); the place does not tell which of the two gave the result
# [2] = target: T2, CheB (Halobacterium salinarum R1 (DSM 671)); assay: as above
# [3] = target: T3, CheF1 (Halobacterium salinarum R1 (DSM 671)); assay: as above
# [4] = target: T4, OE2401F (Halobacterium salinarum R1 (DSM 671)); assay: as above
# [5] = target: OE4643R (Halobacterium salinarum R1 (DSM 671)); assay: as above
# [6] = target: PurNH (OE1620R) (Halobacterium salinarum R1 (DSM 671)); assay: as above
# [7] = target: T5, CheW1 (Halobacterium salinarum R1 (DSM 671)); assay: as above
# [8] = target: T5, CheW1 (Halobacterium salinarum R1 (DSM 671)); assay: affinity purification with mass spectrometry; comparative two-step bait fishing: CheW1 on one cellulose column with light (12C) lysate, CheW2 on a second column with heavy (13C) lysate, the second CheW as control instead of plain CBD; only the target purified
binding [1],binding [2],binding [3],binding [4],binding [5],binding [6],binding [7],binding [8],Molecule
binds,binds,binds,binds,,,,,CheD (Halobacterium salinarum R1 (DSM 671))
,,,,binds,binds,binds,binds,"CheA (enzyme, UniProt B0R4J9 1-668) MDDYLEAFVREGEEHVTSLNNALLELESDPGNEEAMDEIFRTAHTLKGNFGAMGFEDASDLAHAVEDLLDEMRQGNLEVTSDRMDRIFEGIDGIEACLDEIQATGDVDRDVTGTIESVRAVLDEVDGDGGSGTTTSSGDAGSPAGDGDVDATRVVDADTIDAAEDPVYHIHIDMGDSQMKGVDGMFVLEEATEAFDLLGAEPSPDAINDGEYGDGFELVVATPSDEVSDTVAAFPKLSDATVTAVGDDEHAPDADSGTEADASADDDADDAGTTADSGSSSGGSSAIDNTDTEIQSVRVDVDQLDELHGLVEQLVTTRIKLRRGMEESDREVLDELDELDKITSSLQDTVMDMRLVPMKKIVGKFPRLVRDLAREQDKDIDFVVEGDDVELDRTILTEISDPLMHLLRNAVDHGIEKPAVREDNGKDREGTITLSAERDRDHVLIQVRDDGAGIDHDTMREKAIEKGVKTREEVQDMPDDDVEDLVFHPGFSTNDEVTDVSGRGVGMDVVRDTVTRLDGSVSVDSTPGEGTTFTMTLPVTVAIVKVLFVESGGEEYGIPIKTVDEISRMKSVKSVDGEEVITYDETVYPLVRLGDALNVPDETRNGDGMLVRIRDSERQVAVHCDDVRGQEEVVVKPFEGILSGIPGLSGAAVLGEGDVVTILDVATL"

# Source: paper PMC3579733
